Measured values reported in publication PMC8164027.

By UniProt entry, the sequences of proteins in these tests, tags left out.
UniProt P35169: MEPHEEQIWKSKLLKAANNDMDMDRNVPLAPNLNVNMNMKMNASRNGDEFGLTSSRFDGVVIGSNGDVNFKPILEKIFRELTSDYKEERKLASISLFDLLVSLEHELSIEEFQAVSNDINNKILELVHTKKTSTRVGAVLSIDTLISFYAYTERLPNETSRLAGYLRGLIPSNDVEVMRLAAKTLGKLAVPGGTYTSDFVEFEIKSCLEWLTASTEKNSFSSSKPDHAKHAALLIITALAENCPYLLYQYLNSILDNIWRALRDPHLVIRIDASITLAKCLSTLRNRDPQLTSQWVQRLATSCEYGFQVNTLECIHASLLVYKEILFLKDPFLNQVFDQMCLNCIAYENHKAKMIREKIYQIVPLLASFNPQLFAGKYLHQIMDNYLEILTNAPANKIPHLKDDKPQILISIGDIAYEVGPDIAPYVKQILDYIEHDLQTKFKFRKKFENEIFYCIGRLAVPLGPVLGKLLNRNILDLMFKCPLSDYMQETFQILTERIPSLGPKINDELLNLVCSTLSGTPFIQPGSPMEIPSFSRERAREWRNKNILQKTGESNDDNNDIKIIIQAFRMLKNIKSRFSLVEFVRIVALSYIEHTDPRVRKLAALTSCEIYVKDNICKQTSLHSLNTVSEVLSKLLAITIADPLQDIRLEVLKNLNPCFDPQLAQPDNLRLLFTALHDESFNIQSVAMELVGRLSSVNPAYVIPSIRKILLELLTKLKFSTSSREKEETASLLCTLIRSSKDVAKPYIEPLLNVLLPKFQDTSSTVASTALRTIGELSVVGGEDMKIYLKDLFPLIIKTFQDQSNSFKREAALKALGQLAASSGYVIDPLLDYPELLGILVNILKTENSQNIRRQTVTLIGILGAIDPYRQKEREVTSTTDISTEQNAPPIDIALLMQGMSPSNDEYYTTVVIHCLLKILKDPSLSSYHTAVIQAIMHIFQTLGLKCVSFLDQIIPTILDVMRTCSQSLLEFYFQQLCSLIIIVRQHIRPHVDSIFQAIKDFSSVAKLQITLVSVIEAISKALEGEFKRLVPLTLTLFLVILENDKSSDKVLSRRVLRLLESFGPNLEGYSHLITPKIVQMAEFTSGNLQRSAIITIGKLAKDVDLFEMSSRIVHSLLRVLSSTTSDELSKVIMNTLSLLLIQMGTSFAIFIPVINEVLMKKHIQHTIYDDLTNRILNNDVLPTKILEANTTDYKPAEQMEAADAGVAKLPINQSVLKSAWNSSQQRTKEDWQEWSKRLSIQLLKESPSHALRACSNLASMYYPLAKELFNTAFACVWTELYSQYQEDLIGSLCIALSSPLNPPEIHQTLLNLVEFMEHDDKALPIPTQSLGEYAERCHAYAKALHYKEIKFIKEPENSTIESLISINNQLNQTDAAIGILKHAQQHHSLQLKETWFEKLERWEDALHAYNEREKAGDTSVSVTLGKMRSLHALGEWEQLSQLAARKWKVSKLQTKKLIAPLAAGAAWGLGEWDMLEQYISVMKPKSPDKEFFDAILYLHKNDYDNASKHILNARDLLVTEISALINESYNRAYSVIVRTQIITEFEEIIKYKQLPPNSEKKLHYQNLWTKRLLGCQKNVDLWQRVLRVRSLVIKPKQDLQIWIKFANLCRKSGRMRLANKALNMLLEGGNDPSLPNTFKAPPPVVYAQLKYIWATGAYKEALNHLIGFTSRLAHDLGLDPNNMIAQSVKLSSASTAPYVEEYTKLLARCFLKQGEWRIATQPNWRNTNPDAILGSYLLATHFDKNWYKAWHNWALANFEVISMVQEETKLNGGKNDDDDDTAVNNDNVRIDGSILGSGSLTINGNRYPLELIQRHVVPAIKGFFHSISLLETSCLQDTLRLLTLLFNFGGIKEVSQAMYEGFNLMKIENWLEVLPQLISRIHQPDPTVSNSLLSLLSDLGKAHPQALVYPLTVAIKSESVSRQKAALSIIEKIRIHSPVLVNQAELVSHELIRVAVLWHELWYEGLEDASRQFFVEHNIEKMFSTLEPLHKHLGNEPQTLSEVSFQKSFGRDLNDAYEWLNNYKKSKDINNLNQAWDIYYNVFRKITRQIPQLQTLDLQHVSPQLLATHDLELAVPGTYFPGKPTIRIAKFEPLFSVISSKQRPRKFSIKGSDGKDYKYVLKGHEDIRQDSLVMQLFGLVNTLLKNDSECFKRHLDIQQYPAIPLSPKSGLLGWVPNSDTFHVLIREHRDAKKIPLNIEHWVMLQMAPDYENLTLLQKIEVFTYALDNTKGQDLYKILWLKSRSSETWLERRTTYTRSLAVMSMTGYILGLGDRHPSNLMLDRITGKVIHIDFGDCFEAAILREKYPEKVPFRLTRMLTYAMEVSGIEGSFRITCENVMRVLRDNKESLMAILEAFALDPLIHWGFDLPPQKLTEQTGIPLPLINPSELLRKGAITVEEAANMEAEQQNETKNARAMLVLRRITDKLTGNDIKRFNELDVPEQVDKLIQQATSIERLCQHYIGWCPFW
UniProt Q02821: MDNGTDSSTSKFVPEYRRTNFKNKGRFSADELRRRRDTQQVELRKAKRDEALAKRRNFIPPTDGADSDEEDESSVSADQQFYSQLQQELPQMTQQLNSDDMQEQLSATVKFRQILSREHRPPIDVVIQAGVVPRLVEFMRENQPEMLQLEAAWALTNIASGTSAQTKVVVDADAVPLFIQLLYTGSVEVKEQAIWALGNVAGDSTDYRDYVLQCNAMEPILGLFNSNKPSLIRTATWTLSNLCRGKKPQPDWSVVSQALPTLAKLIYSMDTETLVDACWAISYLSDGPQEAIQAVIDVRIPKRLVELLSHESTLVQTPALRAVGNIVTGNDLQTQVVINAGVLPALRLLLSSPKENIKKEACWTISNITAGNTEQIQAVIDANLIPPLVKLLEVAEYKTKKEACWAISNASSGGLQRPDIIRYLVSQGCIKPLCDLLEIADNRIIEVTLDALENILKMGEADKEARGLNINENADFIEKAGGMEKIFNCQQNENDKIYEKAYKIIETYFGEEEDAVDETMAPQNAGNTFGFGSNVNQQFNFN
UniProt P22336: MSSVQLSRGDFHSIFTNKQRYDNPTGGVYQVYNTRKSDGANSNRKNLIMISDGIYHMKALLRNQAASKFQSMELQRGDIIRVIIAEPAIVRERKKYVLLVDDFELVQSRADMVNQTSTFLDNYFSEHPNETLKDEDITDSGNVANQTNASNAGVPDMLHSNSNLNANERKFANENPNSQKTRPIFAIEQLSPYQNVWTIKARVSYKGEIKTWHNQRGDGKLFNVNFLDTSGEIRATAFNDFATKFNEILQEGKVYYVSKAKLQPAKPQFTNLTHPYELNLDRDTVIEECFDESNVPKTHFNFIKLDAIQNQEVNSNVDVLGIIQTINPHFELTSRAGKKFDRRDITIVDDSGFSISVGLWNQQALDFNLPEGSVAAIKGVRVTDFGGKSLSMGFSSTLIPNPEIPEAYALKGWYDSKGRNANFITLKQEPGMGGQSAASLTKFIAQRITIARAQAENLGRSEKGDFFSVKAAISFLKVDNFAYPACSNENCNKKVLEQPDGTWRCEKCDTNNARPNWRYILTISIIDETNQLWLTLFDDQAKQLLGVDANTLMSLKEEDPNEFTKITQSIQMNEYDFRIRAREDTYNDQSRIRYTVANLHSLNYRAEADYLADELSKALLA
UniProt P40457: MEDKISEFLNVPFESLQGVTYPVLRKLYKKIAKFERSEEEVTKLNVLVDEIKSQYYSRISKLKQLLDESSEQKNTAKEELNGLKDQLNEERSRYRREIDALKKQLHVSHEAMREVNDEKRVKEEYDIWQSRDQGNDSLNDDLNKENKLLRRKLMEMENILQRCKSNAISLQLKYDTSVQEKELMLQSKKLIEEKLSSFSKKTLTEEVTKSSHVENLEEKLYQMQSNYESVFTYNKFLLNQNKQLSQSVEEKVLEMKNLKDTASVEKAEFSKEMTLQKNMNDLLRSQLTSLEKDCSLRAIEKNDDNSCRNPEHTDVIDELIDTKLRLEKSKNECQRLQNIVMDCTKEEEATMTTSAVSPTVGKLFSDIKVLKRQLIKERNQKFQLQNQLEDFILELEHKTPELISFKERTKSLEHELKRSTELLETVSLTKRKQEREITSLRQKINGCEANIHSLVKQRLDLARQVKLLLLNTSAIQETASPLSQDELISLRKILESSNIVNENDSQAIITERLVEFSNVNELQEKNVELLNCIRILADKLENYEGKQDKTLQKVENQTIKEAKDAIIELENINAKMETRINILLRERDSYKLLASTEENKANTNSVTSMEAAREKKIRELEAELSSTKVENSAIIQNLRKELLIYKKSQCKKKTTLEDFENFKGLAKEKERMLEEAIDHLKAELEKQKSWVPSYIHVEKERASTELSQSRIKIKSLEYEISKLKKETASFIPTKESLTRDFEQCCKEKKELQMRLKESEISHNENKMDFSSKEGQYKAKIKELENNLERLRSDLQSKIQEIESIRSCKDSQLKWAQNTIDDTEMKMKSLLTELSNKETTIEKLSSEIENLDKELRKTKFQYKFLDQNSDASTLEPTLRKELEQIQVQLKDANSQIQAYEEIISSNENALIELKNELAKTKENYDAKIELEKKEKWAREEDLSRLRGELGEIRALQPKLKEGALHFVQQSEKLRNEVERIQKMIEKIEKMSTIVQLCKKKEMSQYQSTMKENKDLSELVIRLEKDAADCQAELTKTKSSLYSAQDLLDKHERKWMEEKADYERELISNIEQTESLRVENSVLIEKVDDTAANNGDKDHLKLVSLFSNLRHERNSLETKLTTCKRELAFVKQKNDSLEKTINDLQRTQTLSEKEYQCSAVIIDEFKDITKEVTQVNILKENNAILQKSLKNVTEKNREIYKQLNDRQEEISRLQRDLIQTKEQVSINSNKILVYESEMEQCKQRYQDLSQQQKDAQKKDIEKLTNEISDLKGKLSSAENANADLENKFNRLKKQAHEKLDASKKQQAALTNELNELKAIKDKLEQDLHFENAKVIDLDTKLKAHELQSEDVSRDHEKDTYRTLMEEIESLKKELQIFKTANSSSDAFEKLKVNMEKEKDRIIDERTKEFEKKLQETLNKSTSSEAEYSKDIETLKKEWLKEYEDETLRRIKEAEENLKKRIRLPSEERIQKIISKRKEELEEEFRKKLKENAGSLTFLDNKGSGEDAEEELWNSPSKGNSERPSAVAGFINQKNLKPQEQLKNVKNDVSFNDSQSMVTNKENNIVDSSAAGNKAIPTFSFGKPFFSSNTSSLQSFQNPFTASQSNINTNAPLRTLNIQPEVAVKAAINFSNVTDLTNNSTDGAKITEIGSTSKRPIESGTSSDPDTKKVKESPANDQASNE

Biological target: T1, N-terminal Myc-tagged Tsa1 with a mutation in its resolving cysteine residue (Tsa1-C171S) (S. cerevisiae) (UniProt P34760)
T1 sequence: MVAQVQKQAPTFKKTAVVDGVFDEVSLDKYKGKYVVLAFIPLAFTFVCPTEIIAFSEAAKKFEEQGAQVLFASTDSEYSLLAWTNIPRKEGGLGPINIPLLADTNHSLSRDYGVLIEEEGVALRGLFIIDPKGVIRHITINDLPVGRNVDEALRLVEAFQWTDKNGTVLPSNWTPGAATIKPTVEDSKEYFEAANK
Assay: affinity purification with mass spectrometry; Myc-Tsa1-C171S precipitated with anti-myc affinity beads from lysates of a tsa1 mutant, cells untreated or treated with hydrogen peroxide or AZC for 2 h; 4 h at 4 °C; washes in IPP50 buffer (10 mM Tris pH 8.0, 50 mM NaCl); vector-only control; hits in two of three repeats

Row | binding | Molecule
1 | binds | Tor1 (from UniProt P35169 1-2470)
2 | binds | Srp1 (from UniProt Q02821 1-542)
3 | binds | Sub2 (protein, UniProt Q07478 1-446) MSHEGEEDLLEYSDNEQEIQIDASKAAEAGETGAATSATEGDNNNNTAAGDKKGSYVGIHSTGFKDFLLKPELSRAIIDCGFEHPSEVQQHTIPQSIHGTDVLCQAKSGLGKTAVFVLSTLQQLDPVPGEVAVVVICNARELAYQIRNEYLRFSKYMPDVKTAVFYGGTPISKDAELLKNKDTAPHIVVATPGRLKALVREKYIDLSHVKNFVIDECDKVLEELDMRRDVQEIFRATPRDKQVMMFSATLSQEIRPICRRFLQNPLEIFVDDEAKLTLHGLQQYYIKLEEREKNRKLAQLLDDLEFNQVIIFVKSTTRANELTKLLNASNFPAITVHGHMKQEERIARYKAFKDFEKRICVSTDVFGRGIDIERINLAINYDLTNEADQYLHRVGRAGRFGTKGLAISFVSSKEDEEVLAKIQERFDVKIAEFPEEGIDPSTYLNN
4 | binds | Zta1 (protein, UniProt P38230 1-334) MKCTIPEQQKVILIDEIGGYDVIKYEDYPVPSISEEELLIKNKYTGVNYIESYFRKGIYPCEKPYVLGREASGTVVAKGKGVTNFEVGDQVAYISNSTFAQYSKISSQGPVMKLPKGTSDEELKLYAAGLLQVLTALSFTNEAYHVKKGDYVLLFAAAGGVGLILNQLLKMKGAHTIAVASTDEKLKIAKEYGAEYLINASKEDILRQVLKFTNGKGVDASFDSVGKDTFEISLAALKRKGVFVSFGNASGLIPPFSITRLSPKNITLVRPQLYGYIADPEEWKYYSDEFFGLVNSKKLNIKIYKTYPLRDYRTAAADIESRKTVGKLVLEIPQ
5 | binds | YMR102C (protein, UniProt Q03177 1-834) MTNMAEDKTSISKVHSEFSNSSNTTGSEEESRSHQESFDGESSSGESKSKSKLNLEYSADIEPLKFRMTKTNNTNDKLKYSNNGNATDSFMRLKEHLQRGNTLNSNLRVNEFYPFNSIDTEQFENYLREPKYIKMLKRRKNLKQFRRLFLAQELMAYEGETVTSTSKSSEPTSKAIWSTKFSRDGKFMATGSKDGKIRIWKVIGSPVERAELDSSAESNKEARAKSMRIKQQVSSLNNPKEKQFLDSATEKYEEKEKLLNLYAPVFHPTPLRLYKEHVQDVLDINWSKNNFILSASMDKTVKLWHPDRKNSLKTFIHPDFVTCVEFHPTDDRFFISGCLDHKCRLWSILDDEVSFEYDCQDLITSVTLSPEEGKYTIIGTFNGYVHILMTRGLTPVSSFHVADRQTQEQNAHVMVTETDSKIRHGPRVTGLQAFRSQLDNSFRLVVTSNDSRIRIFDLEQRKLLEVLKGFHSGSSQHKAQLSIWHGQPIVVNSSDDHWVYGWRLKSSDRENDQDEPKRKPKGLARSGSLRSIFSKSMSRSSSQNNEEKPHHHLKLTNLLPLPHHSNDHYIKNTDYISFHAHNAPVTCVSIAPPETSKTLSLSNDVICELSLEFFQTSDSFDVLSRSNDDGIMSDVESSLGYNSKPGSISNASATSAIPDVVDAIGTILISTDNVGTIRVFRADMPSVIRKRVLLKLEEYNREVRRRFNSSDSLHSLSRSFNSRAKSNLAGQPAAAYTNTGKGYATGRGYSNICPKSSTSLKTLGSNAQPRTPRESMSSIFSNAHGPTTPTSAMNLPIRCNVCNGSRFEAFSGANDQQDRNYYCVDCGTVVNNFR

Second part, the molecule before the results:

Row | Molecule | binding
6 | Rfa1 (from UniProt P22336 1-621) | binds
7 | Mlp2 (from UniProt P40457 1-1679) | binds
8 | Lys21 (S. cerevisiae (endogenous in W303)) | binds
9 | Hxk1 (protein, UniProt P04806 1-485) MVHLGPKKPQARKGSMADVPKELMDEIHQLEDMFTVDSETLRKVVKHFIDELNKGLTKKGGNIPMIPGWVMEFPTGKESGNYLAIDLGGTNLRVVLVKLSGNHTFDTTQSKYKLPHDMRTTKHQEELWSFIADSLKDFMVEQELLNTKDTLPLGFTFSYPASQNKINEGILQRWTKGFDIPNVEGHDVVPLLQNEISKRELPIEIVALINDTVGTLIASYYTDPETKMGVIFGTGVNGAFYDVVSDIEKLEGKLADDIPSNSPMAINCEYGSFDNEHLVLPRTKYDVAVDEQSPRPGQQAFEKMTSGYYLGELLRLVLLELNEKGLMLKDQDLSKLKQPYIMDTSYPARIEDDPFENLEDTDDIFQKDFGVKTTLPERKLIRRLCELIGTRAARLAVCGIAAICQKRGYKTGHIAADGSVYNKYPGFKEAAAKGLRDIYGWTGDASKDPITIVPAEDGSGAGAAVIAALSEKRIAEGKSLGIIGA | binds
10 | Dak1 (protein, UniProt P54838 1-584) MSAKSFEVTDPVNSSLKGFALANPSITLVPEEKILFRKTDSDKIALISGGGSGHEPTHAGFIGKGMLSGAVVGEIFASPSTKQILNAIRLVNENASGVLLIVKNYTGDVLHFGLSAERARALGINCRVAVIGDDVAVGREKGGMVGRRALAGTVLVHKIVGAFAEEYSSKYGLDGTAKVAKIINDNLVTIGSSLDHCKVPGRKFESELNEKQMELGMGIHNEPGVKVLDPIPSTEDLISKYMLPKLLDPNDKDRAFVKFDEDDEVVLLVNNLGGVSNFVISSITSKTTDFLKENYNITPVQTIAGTLMTSFNGNGFSITLLNATKATKALQSDFEEIKSVLDLLNAFTNAPGWPIADFEKTSAPSVNDDLLHNEVTAKAVGTYDFDKFAEWMKSGAEQVIKSEPHITELDNQVGDGDCGYTLVAGVKGITENLDKLSKDSLSQAVAQISDFIEGSMGGTSGGLYSILLSGFSHGLIQVCKSKDEPVTKEIVAKSLGIALDTLYKYTKARKGSSTMIDALEPFVKEFTASKDFNKAVKAAEEGAKSTATFEAKFGRASYVGDSSQVEDPGAVGLCEFLKGVQSAL | binds
11 | Ede1 (protein, UniProt P34216 1-1381) MASITFRTPLSSQEQAFYNQKFHQLDTEDLGVVTGEAVRPLFASSGLPGQLLSQVWATVDIDNKGFLNLNEFSAALRMIAQLQNAPNQPISAALYESTPTQLASFSINQNPAPMQSGSATGNTNNTDIPALSSNDIAKFSQLFDRTAKGAQTVAGDKAKDIFLKARLPNQTLGEIWALCDRDASGVLDKSEFIMAMYLIQLCMSHHPSMNTPPAVLPTQLWDSIRLEPVVVNQPNRTTPLSANSTGVSSLTRHSTISRLSTGAFSNAASDWSLSFEKKQQFDAIFDSLDKQHAGSLSSAVLVPFFLSSRLNQETLATIWDLADIHNNAEFTKLEFAIAMFLIQKKNAGVELPDVIPNELLQSPALGLYPPNPLPQQQSAPQIAIPSRASKPSLQDMPHQVSAPAVNTQPTVPQVLPQNSNNGSLNDLLALNPSFSSPSPTKAQTVVQNNTNNSFSYDNNNGQATLQQQQPQQPPPLTHSSSGLKKFTPTSNFGQSIIKEEPEEQEQLRESSDTFSAQPPPVPKHASSPVKRTASTTLPQVPNFSVFSMPAGAATSAATGAAVGAAVGAAALGASAFSRSSNNAFKNQDLFADGEASAQLSNATTEMANLSNQVNSLSKQASITNDKKSRATQELKRVTEMKNSIQIKLNNLRSTHDQNVKQTEQLEAQVLQVNKENETLAQQLAVSEANYHAAESKLNELTTDLQESQTKNAELKEQITNLNSMTASLQSQLNEKQQQVKQERSMVDVNSKQLELNQVTVANLQKEIDGLGEKISVYLTKQKELNDYQKTVEEQHAQLQAKYQDLSNKDTDLTDREKQLEERNRQIEEQENLYHQHVSKLQEMFDDLSQRKASFEKADQELKERNIEYANNVRELSERQMNLAMGQLPEDAKDIIAKSASNTDTTTKEATSRGNVHEDTVSKFVETTVENSNLNVNRVKDDEEKTERTESDVFDRDVPTLGSQSDSENANTNNGTQSGNETANPNLTETLSDRFDGDLNEYGIPRSQSLTSSVANNAPQSVRDDVELPETLEERDTINNTANRDNTGNLSHIPGEWEATPATASTDVLSNETTEVIEDGSTTKRANSNEDGESVSSIQESPKISAQPKAKTINEEFPPIQELHIDESDSSSSDDDEFEDTREIPSATVKTLQTPYNAQPTSSLEIHTEQVIKYPAPGTSPSHNEGNSKKASTNSILPVKDEFDDEFAGLEQAAVEEDNGADSESEFENVANAGSMEQFETIDHKDLDDELQMNAFTGTLTSSSNPTIPKPQVQQQSTSDPAQVSNDEWDEIFAGFGNSKAEPTKVATPSIPQQPIPLKNDPIVDASLSKGPIVNRGVATTPKSLAVEELSGMGFTEEEAHNALEKCNWDLEAATNFLLDSA | binds
12 | Bud2 (protein, UniProt P33314 1-1104) MSSNNEPAQSRTSYFKLNEFLSNVKHYKNTFKGEIQWCNNLSLNDWKTHYLQITSTGALTHSIDELTADSTNIQPIIKHLQQCRIEIIKDKHSSFKDINANCNFIIQVNTSGKDNKVYLRVKSWSDFKKLLTCLIWWSSMKTNGIFNKFQVSRPLEFKSKKMAKPESLLVYKLNVFGPIVKNIVLPPATNILESPDIINNDDNSVGWFSAMGVLKSNGMLDLLLQSDGSLIYSLNISQLLRSEIRILDSSVLQSENSLFLGELPLLRSQLGLEKFRIENIASAATNSSDISQEIIVEFPLRIDLEDCFIALQSFARSEYLSITGSDKSNDMKISNSFKISILEANFQSINLNDKNNTPWSIFTDITAWGHTWARTSMVSNSSNPFWREEFQFNELLRLTNSYLEIKQLFHDLNNKKRLRLIGKIKITQEIINDTRYNKETRLPIMDVDNKNFQIGTICIKISSNLNFILPSTNFVKLEKLLMNANLSMVSNLIYKSSSSMENDNKLTQTSIIFLDIFQSLSRIEEWFHVLIDKELAKIDGTVSRINQKNLDSKHVFNSLFRGNSILTKSIEQYFFRVGNEYLSKALSAILKEIIESNKSCELDPARVKEKDEVKKRKIIADNYKRLYSWVTKIWKRLYATSNDLPIEIRNVLKIFRQKLEIICIDDTLQIILNGISGLLFLRFFCPVILNPKLFKYVSQNLNETARRNLTLISKVLLNLSTLTQFANKEPWLMKMNNFIDKRHNDLLDYIDKMTQKKLDFNSKILNLSSTISRPKLAIEQTMLDDLPQIPYLLDKNLRETEFVNLIVNFSQEDMTKMEKYNHMDNGGKGELIEEEGLLSGSSLNLSVDKKDLDSPIEVKPEIGELEFEKITENNTEIFGDDLMNLLKSDDVGSRSRDLDNGANSGIKFNSIIPKAEEEKHAMKELEQESCLLYNRINHIRKRLSGYECASSTLFEDKKYSISLSHKIFYEEIKEGKEIVLKLLNKPTNENSSARLQKFFTKGVSSKSNNTVGDSYCKFLTIDVSDENPKSSNKTSVHGTSSENGAKDDYLTLPNSQGKGNLGNRFSPTKLSRIMRKPPNADVPKEQNSRKLTRWFKKKKETGGS | binds

Results are given in words; binding and its absence hold for the method and conditions named. In cells and extracts the contact can be indirect. Here binding means that the protein was enriched with, or labelled near, the bait; the list need not be complete. Where a sequence is shown, tags or fusion partners need not be part of it.
